Data taken from ChEMBL document CHEMBL3988442, “University of Dundee, Small-Polar-MMV Screening Library” (2021).

Amino acid sequences for entries named in this document (tags omitted).
UniProt E9BF75, entry or part of it: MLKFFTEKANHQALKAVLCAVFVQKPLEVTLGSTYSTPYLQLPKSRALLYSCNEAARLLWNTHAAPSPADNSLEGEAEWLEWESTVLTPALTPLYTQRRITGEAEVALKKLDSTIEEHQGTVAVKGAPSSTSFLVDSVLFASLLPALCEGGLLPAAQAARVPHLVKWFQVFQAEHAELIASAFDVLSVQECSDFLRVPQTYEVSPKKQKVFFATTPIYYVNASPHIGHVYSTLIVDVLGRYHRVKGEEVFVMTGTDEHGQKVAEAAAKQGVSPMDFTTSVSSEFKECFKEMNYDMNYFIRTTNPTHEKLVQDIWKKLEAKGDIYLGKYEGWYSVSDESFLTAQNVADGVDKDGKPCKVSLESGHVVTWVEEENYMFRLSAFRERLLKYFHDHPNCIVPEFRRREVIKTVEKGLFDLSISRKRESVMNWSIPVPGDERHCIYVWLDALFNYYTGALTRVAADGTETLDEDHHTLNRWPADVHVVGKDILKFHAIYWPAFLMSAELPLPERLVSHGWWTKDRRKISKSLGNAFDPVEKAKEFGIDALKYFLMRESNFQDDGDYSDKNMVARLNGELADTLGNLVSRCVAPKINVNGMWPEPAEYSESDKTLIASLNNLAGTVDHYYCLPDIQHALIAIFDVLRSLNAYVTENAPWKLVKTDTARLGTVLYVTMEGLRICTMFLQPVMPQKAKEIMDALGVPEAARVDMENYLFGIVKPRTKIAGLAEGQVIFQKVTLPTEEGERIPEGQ

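Methionyl-tRNA synthetase (putative), Leishmania donovani (UniProt E9BF75). Primary screen of methionyl-tRNA synthetase; the read-out is not stated. The test concentration is not given. Values are per cent inhibition. About 68,000 compounds were tested under these conditions; 0.035% (about 24) showed 50% or more at least once.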

Results are percentages, as filed. The controls that fix the scale are not given in the record; negative values are as filed. The compounds are a random part of those screened.

| # | structure | Inhibition |
|---|---|---|
| 1 | `COc1cc2nc(C)sc2cc1NC(=O)C(C)NC(N)=O` (centres undefined) | 19.86% |
| 2 | `COCCC(=O)N1CCOCC2(CCN(Cc3cccs3)C2)C1` (centres undefined) | 3.562% |
| 3 | `O=C1CN([C@@H]2CC[C@@H](NS(=O)(=O)c3ccccc3)[C@H]2O)CCN1` | 11.05% |
| 4 | `COc1ccc(C)cc1C(C)NCc1cccn1C` (centres undefined) | 12.32% |
| 5 | `CN1CC[C@H](N(C)Cc2ccccc2)C[C@H](O)C1` | 7.297% |
| 6 | `COc1ccc(CN2CC(O)CN(C(=O)c3ccccc3)CC2=O)cc1` (centres undefined) | 3.562% |
| 7 | `CCOC(=O)C1(CCOC)CCCN(Cc2nccn2CC)C1` (centres undefined) | 9.61% |
| 8 | `COCCNC(=O)[C@@H]1C[C@@H]2CCN(c3ncccn3)C[C@H]2O1` | 1.015% |
| 9 | `COc1ccccc1N1CCC(CNC(=O)CN2CSCC2=O)C1` (centres undefined) | 12.21% |
| 10 | `COc1ncccc1NC(=O)N1CCC(CNC(C)=O)CC1` | 12.68% |
| 11 | `CC(C(=O)NC1(C#N)CCCCC1)N1CCc2c(ncn2C2CC2)C1` (centres undefined) | 16.62% |
| 12 | `O=C(NCCNc1cnccn1)NCC1CCS(=O)(=O)C1` (centres undefined) | 13.46% |
| 13 | `CCC(CC)c1cc(C(=O)N2CCCC(n3cncn3)C2)on1` (centres undefined) | 13.27% |
| 14 | `CCc1csc(C2CCCN(C(=O)c3cnc[nH]3)C2)n1` (centres undefined) | 19.66% |
| 15 | `CC1(CNS(=O)(=O)c2cccc(C(=O)N3CCSCC3)c2)COC1` | 7.419% |
| 16 | `CN(C)C(=O)CCCn1ccc(NC(=O)NCc2cccc(F)c2)n1` | 8.527% |
| 17 | `CCOC1Sc2nnc(C)n2N=C1c1ccc(F)cc1` (centres undefined) | 18.42% |
| 18 | `CCCN1CCC(N2CCN(c3cccc(C)n3)CC2)CC1` | 3.106% |
| 19 | `CCc1cc(CNC(=O)Nc2cc(F)ccc2N2CCCCC2)on1` | 16.43% |

Some entries from above, unchanged:

* CC(C(=O)NC1(C#N)CCCCC1)N1CCc2c(ncn2C2CC2)C1 (centres undefined) : 16.62%
* CCOC(=O)C1(CCOC)CCCN(Cc2nccn2CC)C1 (centres undefined) : 9.61%